# Measurements reported in PubChem BioAssay AID1259405 (NCATS, 2018)
# Test: 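Knock-downs that lift recombinant protein yield in hamster ovary cells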 (primary screen)
# System: Chinese hamster CHO-K1 ovary cells with stable secreted eGFP expression
# Reagents: single siRNA against mouse genes, 0.8 pmol siRNA per well (2 µl of 400 nM stock)
# Time to read-out: 3 days
# Measured: 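Per-well intracellular GFP measured by laser scanning cytometry, plus viability from ATP luminescence, each relative to plate median of non-targeting control wells, in %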
# Scale: GFP, % of control: higher = more GFP per well, higher productivity; viability (ATP), % of control: higher = more viable cells (more ATP)
# Call rule: 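a knock-down is called active if GFP reaches 120% or more of non-targeting control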
# Here is one part, drawn at random, of about 50,000 deposited reagents. In the full data, about 4,000 (8%) got an active call. 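Mouse siRNA library applied to hamster cells; one well for each siRNA.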 Unmarked entries are inactive. Reagents against one gene are numbered here.
Target gene,reagent,"GFP, % of control","viability (ATP), % of control"
Plac8 (GeneID 231507),1,68.8,57.4
Plac8 (GeneID 231507),2,69.6,25.8
Plac8 (GeneID 231507),3,103,75
N4bp2l2 (GeneID 381695),1,37.2,46.4
N4bp2l2 (GeneID 381695),2,56.7,78.5
N4bp2l2 (GeneID 381695),3,85.5,79.1
Vmn1r29 (GeneID 113859),1,66.7,79.3
Vmn1r29 (GeneID 113859),2,103,75.2
Vmn1r29 (GeneID 113859),3,78.3,93.3
Sec13 (GeneID 110379),1,37.5,41
Sec13 (GeneID 110379),2,89.2,36.8
Sec13 (GeneID 110379),3,78.2,83.4
Mtres1 (GeneID 67851),1,87.1,74.6
Mtres1 (GeneID 67851),2,73.4,64
Mtres1 (GeneID 67851),3,81.2,55.4
Tnfrsf10b (GeneID 21933),1,87.4,79.1
Tnfrsf10b (GeneID 21933),2,76.9,77.6
Tnfrsf10b (GeneID 21933),3,96.5,86
Fam98a (GeneID 72722),1,64.3,83
Fam98a (GeneID 72722),2,76,77.5
Fam98a (GeneID 72722),3,82.3,58.8
Wdr45b (GeneID 66840),1,84.6,118
Wdr45b (GeneID 66840),2,91.1,98.2
Wdr45b (GeneID 66840),3,96.4,107
Gnb1l (GeneID 13972),1,53.2,60.6
Gnb1l (GeneID 13972),2,77.2,40.6
Gnb1l (GeneID 13972),3,197 (active),74.1
Slc31a1 (GeneID 20529),1,110,97.4
Slc31a1 (GeneID 20529),2,62,83.6
Slc31a1 (GeneID 20529),3,72.3,71.7
Nkx2-9 (GeneID 18094),1,67.5,83.5
Nkx2-9 (GeneID 18094),2,66.7,76.1
Actn1 (GeneID 109711),1,118,84.4
Actn1 (GeneID 109711),2,103,82.7
Sema7a (GeneID 20361),1,94.1,89.8
Sema7a (GeneID 20361),2,83.1,87.3
Sema7a (GeneID 20361),3,88.6,108
Neurog1 (GeneID 18014),1,77.6,100
Neurog1 (GeneID 18014),2,99.6,91.1
Neurog1 (GeneID 18014),3,110,103
Mapre3 (GeneID 100732),1,95.2,99.5
Mapre3 (GeneID 100732),2,83.9,70.6
Mapre3 (GeneID 100732),3,68.5,72.6
Ccdc68 (GeneID 381175),1,117,97.3
Ccdc68 (GeneID 381175),2,91.7,77.6
Ccdc68 (GeneID 381175),3,111,83.5
Tshr (GeneID 22095),1,90.1,73.7
Tshr (GeneID 22095),2,93,98.4
Tshr (GeneID 22095),3,39.2,53.7
Unc5cl (GeneID 76589),1,82.7,49
Unc5cl (GeneID 76589),2,70.9,63.3
Unc5cl (GeneID 76589),3,87.3,94.5
Tulp2 (GeneID 56734),1,96.1,86.7
Tulp2 (GeneID 56734),2,92.3,86.1
Tulp2 (GeneID 56734),3,120 (active),86.2

Continued (7 carried over from the part before).
Target gene,reagent,"GFP, % of control","viability (ATP), % of control"
Tshr (GeneID 22095),3,39.2,53.7
Unc5cl (GeneID 76589),1,82.7,49
Unc5cl (GeneID 76589),2,70.9,63.3
Unc5cl (GeneID 76589),3,87.3,94.5
Tulp2 (GeneID 56734),1,96.1,86.7
Tulp2 (GeneID 56734),2,92.3,86.1
Tulp2 (GeneID 56734),3,120 (active),86.2
Fgb (GeneID 110135),1,105,64.6
Fgb (GeneID 110135),2,77.5,60.8
Fgb (GeneID 110135),3,50.2,86.8
Mybpc2 (GeneID 233199),1,44,52.2
Mybpc2 (GeneID 233199),2,74.2,63.4
Pla2g2d (GeneID 18782),1,78.5,67.8
Pla2g2d (GeneID 18782),2,93.7,75.4
Pla2g2d (GeneID 18782),3,72.3,83.5
Brcc3dc (GeneID 368203),1,86.6,92.8
Brcc3dc (GeneID 368203),2,43.1,70.8
Brcc3dc (GeneID 368203),3,120,93.7
Tdpoz3 (GeneID 399674),1,122 (active),124
Tdpoz3 (GeneID 399674),2,138 (active),82.7
Tdpoz3 (GeneID 399674),3,109,76.7
Vmn1r6 (GeneID 171193),1,92.9,79.9
Vmn1r6 (GeneID 171193),2,81.8,65.8
Vmn1r6 (GeneID 171193),3,90.3,109
Tpp2 (GeneID 22019),1,57.9,82.5
Tpp2 (GeneID 22019),2,53.4,63.2
Tpp2 (GeneID 22019),3,80,93.3
Gabrd (GeneID 14403),1,68,87
Gabrd (GeneID 14403),2,112,103
Gabrd (GeneID 14403),3,65.6,46.6
Prkca (GeneID 18750),1,109,64.4
Prkca (GeneID 18750),2,89,91.5
Prkca (GeneID 18750),3,121 (active),98.3
Txndc17 (GeneID 52700),1,163 (active),105
Txndc17 (GeneID 52700),2,105,64.2
Txndc17 (GeneID 52700),3,104,73.6
